# Results reported in the supplement of paper PMC8728848.
# Some of the results follow.
# Assays:
# Test in all cases: glycan array binding signal (z-score within array); higher = stronger binding
# Settings in all cases: glycan notation: IUPAC condensed, linker removed
# [1] = biological target: Fuc(a1-2)[Gal(a1-3)]Gal(b1-4)[Fuc(a1-3)]Glc
# How it was run: (§1)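 Arrays were curated from the Consortium for Functional Glycomics database, 3228 in total, and kept only where the protein sequence was available. Binding is expressed as a within-array Z-score. This score was averaged across arrays of the same protein sequence at different concentrations or buffers and across linkers, and negative values can be read as non-binding.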
# [2] = biological target: Fuc(a1-2)[Gal(a1-3)]Gal(b1-4)[Fuc(a1-3)]GlcNAc
# How it was run: as §1
# [3] = biological target: Fuc(a1-2)[Gal(a1-3)]Gal(b1-4)[Fuc(a1-3)]GlcNAc(b1-3)GalNAc
# How it was run: as §1
# [4] = biological target: Fuc(a1-2)[Gal(a1-4)]Gal(b1-4)GlcNAc
# How it was run: as §1
# [5] = biological target: Fuc(a1-2)[GalNAc(a1-3)]Gal
# How it was run: as §1
# [6] = biological target: Fuc(a1-2)[GalNAc(a1-3)]Gal(b1-3)GalNAc(a1-3)[Fuc(a1-2)]Gal(b1-4)GlcNAc
# How it was run: as §1
# [7] = biological target: Fuc(a1-2)[GalNAc(a1-3)]Gal(b1-3)GlcNAc
# How it was run: as §1
# [8] = biological target: Fuc(a1-2)[GalNAc(a1-3)]Gal(b1-3)GlcNAc(b1-2)Man(a1-3)[Fuc(a1-2)[GalNAc(a1-3)]Gal(b1-3)GlcNAc(b1-2)Man(a1-6)]Man(b1-4)GlcNAc(b1-4)GlcNAc
# How it was run: as §1
# [9] = biological target: Fuc(a1-2)[GalNAc(a1-3)]Gal(b1-3)GlcNAc(b1-2)Man(a1-3)[Fuc(a1-2)[GalNAc(a1-3)]Gal(b1-3)GlcNAc(b1-2)Man(a1-6)]Man(b1-4)GlcNAc(b1-4)[Fuc(a1-6)]GlcNAc
# How it was run: as §1
# [10] = biological target: Fuc(a1-2)[GalNAc(a1-3)]Gal(b1-3)GlcNAc(b1-3)GalNAc
# How it was run: as §1
# [11] = biological target: Fuc(a1-2)[GalNAc(a1-3)]Gal(b1-3)GlcNAc(b1-6)GalNAc
# How it was run: as §1
# [12] = biological target: Fuc(a1-2)[GalNAc(a1-3)]Gal(b1-4)Glc
# How it was run: as §1
# [13] = biological target: Fuc(a1-2)[GalNAc(a1-3)]Gal(b1-4)GlcNAc
# How it was run: as §1
# [14] = biological target: Fuc(a1-2)[GalNAc(a1-3)]Gal(b1-4)GlcNAc(b1-2)Man(a1-3)[Fuc(a1-2)[GalNAc(a1-3)]Gal(b1-4)GlcNAc(b1-2)Man(a1-6)]Man(b1-4)GlcNAc(b1-4)GlcNAc
# How it was run: as §1
# [15] = biological target: Fuc(a1-2)[GalNAc(a1-3)]Gal(b1-4)GlcNAc(b1-2)Man(a1-3)[Fuc(a1-2)[GalNAc(a1-3)]Gal(b1-4)GlcNAc(b1-2)Man(a1-6)]Man(b1-4)GlcNAc(b1-4)[Fuc(a1-6)]GlcNAc
# How it was run: as §1
# [16] = biological target: Fuc(a1-2)[GalNAc(a1-3)]Gal(b1-4)GlcNAc(b1-3)Gal(b1-4)GlcNAc
# How it was run: as §1
# [17] = biological target: Fuc(a1-2)[GalNAc(a1-3)]Gal(b1-4)GlcNAc(b1-3)Gal(b1-4)GlcNAc(b1-3)Gal(b1-4)GlcNAc
# How it was run: as §1
# [18] = biological target: Fuc(a1-2)[GalNAc(a1-3)]Gal(b1-4)GlcNAc(b1-3)GalNAc
# How it was run: as §1
# [19] = biological target: Fuc(a1-2)[GalNAc(a1-3)]Gal(b1-4)[Fuc(a1-3)]GlcNAc
# How it was run: as §1
# [20] = biological target: Fuc(a1-2)[GalNAc(a1-3)]Gal(b1-4)[Fuc(a1-3)]GlcNAc(b1-3)GalNAc
# How it was run: as §1
# [21] = biological target: Fuc(a1-2)[GalNAc(a1-4)]Gal(b1-4)GlcNAc
# How it was run: as §1
# [22] = biological target: Fuc(a1-2)[GalNAc(b1-3)]Gal
# How it was run: as §1
# Fuc(a1-3)GlcNAc = biological target: Fuc(a1-3)GlcNAc
# How it was run: as §1
# [23] = biological target: Fuc(a1-3)[Gal(b1-4)]Glc6S
# How it was run: as §1
# [24] = biological target: Fuc(a1-3)[Gal(b1-4)]GlcNAc
# How it was run: as §1
# [25] = biological target: Fuc(a1-3)[Gal(b1-4)]GlcNAc(b1-2)Man
# How it was run: as §1
# [26] = biological target: Fuc(a1-3)[Gal(b1-4)]GlcNAc(b1-2)Man(a1-3)[Fuc(a1-3)[Gal(b1-4)]GlcNAc(b1-2)Man(a1-6)]Man(b1-4)GlcNAc(b1-4)GlcNAc
# How it was run: as §1
# [27] = biological target: Fuc(a1-3)[Gal(b1-4)]GlcNAc(b1-2)Man(a1-3)[Fuc(a1-3)[Gal(b1-4)]GlcNAc(b1-2)Man(a1-6)]Man(b1-4)GlcNAc(b1-4)[Fuc(a1-6)]GlcNAc
# How it was run: as §1
# [28] = biological target: Fuc(a1-3)[Gal(b1-4)]GlcNAc(b1-3)Gal(b1-3)[Fuc(a1-4)]GlcNAc
# How it was run: as §1
# [29] = biological target: Fuc(a1-3)[Gal(b1-4)]GlcNAc(b1-3)GalNAc
# How it was run: as §1
binder,measurement,setting,value
"Latrophilin-3 (Homo sapiens), Q9HAR2 (protein) MWPSQLLIFMMLLAPIIHAFSRAPIPMAVVRRELSCESYPIELRCPGTDVIMIESANYGRTDDKICDSDPAQMENIRCYLPDAYKIMSQRCNNRTQCAVVAGPDVFPDPCPGTYKYLEVQYECVPYKVEQKVFLCPGLLKGVYQSEHLFESDHQSGAWCKDPLQASDKIYYMPWTPYRTDTLTEYSSKDDFIAGRPTTTYKLPHRVDGTGFVVYDGALFFNKERTRNIVKFDLRTRIKSGEAIIANANYHDTSPYRWGGKSDIDLAVDENGLWVIYATEQNNGKIVISQLNPYTLRIEGTWDTAYDKRSASNAFMICGILYVVKSVYEDDDNEATGNKIDYIYNTDQSKDSLVDVPFPNSYQYIAAVDYNPRDNLLYVWNNYHVVKYSLDFGPLDSRSGQAHHGQVSYISPPIHLDSELERPSVKDISTTGPLGMGSTTTSTTLRTTTLSPGRSTTPSVSGRRNRSTSTPSPAVEVLDDMTTHLPSASSQIPALEESCEAVEAREIMWFKTRQGQIAKQPCPAGTIGVSTYLCLAPDGIWDPQGPDLSNCSSPWVNHITQKLKSGETAANIARELAEQTRNHLNAGDITYSVRAMDQLVGLLDVQLRNLTPGGKDSAARSLNKAMVETVNNLLQPQALNAWRDLTTSDQLRAATMLLHTVEESAFVLADNLLKTDIVRENTDNIKLEVARLSTEGNLEDLKFPENMGHGSTIQLSANTLKQNGRNGEIRVAFVLYNNLGPYLSTENASMKLGTEALSTNHSVIVNSPVITAAINKEFSNKVYLADPVVFTVKHIKQSEENFNPNCSFWSYSKRTMTGYWSTQGCRLLTTNKTHTTCSCNHLTNFAVLMAHVEVKHSDAVHDLLLDVITWVGILLSLVCLLICIFTFCFFRGLQSDRNTIHKNLCISLFVAELLFLIGINRTDQPIACAVFAALLHFFFLAAFTWMFLEGVQLYIMLVEVFESEHSRRKYFYLVGYGMPALIVAVSAAVDYRSYGTDKVCWLRLDTYFIWSFIGPATLIIMLNVIFLGIALYKMFHHTAILKPESGCLDNIKSWVIGAIALLCLLGLTWAFGLMYINESTVIMAYLFTIFNSLQGMFIFIFHCVLQKKVRKEYGKCLRTHCCSGKSTESSIGSGKTSGSRTPGRYSTGSQSRIRRMWNDTVRKQSESSFITGDINSSASLNREGLLNNARDTSVMDTLPLNGNHGNSYSIASGEYLSNCVQIIDRGYNHNETALEKKILKELTSNYIPSYLNNHERSSEQNRNLMNKLVNNLGSGREDDAIVLDDATSFNHEESLGLELIHEESDAPLLPPRVYSTENHQPHHYTRRRIPQDHSESFFPLLTNEHTEDLQSPHRDSLYTSMPTLAGVAATESVTTSTQTEPPPAKCGDAEDVYYKSMPNLGSRNHVHQLHTYYQLGRGSSDGFIVPPNKDGTPPEGSSKGPAHLVTSL",glycan array binding signal (z-score),[1],-0.915
same,glycan array binding signal (z-score),[2],0.315
same,glycan array binding signal (z-score),[3],-0.257
same,glycan array binding signal (z-score),[4],-0.055
same,glycan array binding signal (z-score),[5],-0.566
same,glycan array binding signal (z-score),[6],-1.2
same,glycan array binding signal (z-score),[7],-0.263
same,glycan array binding signal (z-score),[8],-0.097
same,glycan array binding signal (z-score),[9],1.47
same,glycan array binding signal (z-score),[10],0.027
same,glycan array binding signal (z-score),[11],0.106
same,glycan array binding signal (z-score),[12],-0.088
same,glycan array binding signal (z-score),[13],-0.285
same,glycan array binding signal (z-score),[14],-0.607
same,glycan array binding signal (z-score),[15],-0.618
same,glycan array binding signal (z-score),[16],0.586
same,glycan array binding signal (z-score),[17],0.608
same,glycan array binding signal (z-score),[18],-0.844
same,glycan array binding signal (z-score),[19],-0.398
same,glycan array binding signal (z-score),[20],4.19
same,glycan array binding signal (z-score),[21],-0.369
same,glycan array binding signal (z-score),[22],1.41
same,glycan array binding signal (z-score),Fuc(a1-3)GlcNAc,-0.243
same,glycan array binding signal (z-score),[23],-0.69
same,glycan array binding signal (z-score),[24],0.037
same,glycan array binding signal (z-score),[25],1.92
same,glycan array binding signal (z-score),[26],1.24
same,glycan array binding signal (z-score),[27],-0.135
same,glycan array binding signal (z-score),[28],0.571
same,glycan array binding signal (z-score),[29],-0.702
